PubChem BioAssay AID1347076 (National Center for Advancing Translational Sciences (NCATS), 2019)
Screen size: about 400,000 compounds; about 13,000 (3.2%) were called active. This list was built around the results that the source calls inconclusive (neither active nor inactive); the mix of calls is not that of the screen. Calls come from the whole dose curve; as a rule, active = well fitted cell-killing curve with a large enough effect; inconclusive = small, poorly fitted or top-dose-only effect, or effect the other way; inactive = flat fitted curve, though single readings scatter. Potencies beside an inconclusive call are fits to weak or partial responses and may not hold up.
% is set by controls: 0 for no effect and ±100 for the full control effect; potency is the fitted concentration of half-maximal effect.

Test: qHTS assay for MDR1-selective chemotherapeutics: Primary screen using the drug-selected MDR subline cells KB-V1; note: nearly all actives have a fitted effect of over 60% in size
Settings: KB-V1 MDR cells viability, CellTiter-Glo, 72 h; activity change, negative = cytotoxicity: at 46.1 µM (top of the series)
Method in brief: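 qHTS viability screen in drug-selected KB-V1 MDR cells: 72 h compound treatment at 37 degrees C, ATP luminescence end point.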
In the case of `CCOC(=O)c1c(NC(=O)CN2C(=O)c3ccccc3C2=O)sc(Cc2ccc3c(c2)OCO3)c1C`, the “activity change, negative = cytotoxicity” value is reported as inactive: -5.11%. With `O=C1C=C(N(CCO)Cc2ccccc2)c2ccccc2C1=O` the Potency was active: 18.4 µM. For `CCC[C@H]1CN(c2ccccc2)C(=O)[C@@H]1CC(=O)Nc1ccccc1`, the Potency was inconclusive: 10.3 µM [cytotoxic, partial curve]. For `Cc1cc(-c2nnc(SCC(=O)Nc3ccccc3C)n2N)n[nH]1`, the Potency was inconclusive: 29.1 µM [rising, single point]. With `CCN1CCCC1CNc1ncnc2c1[nH]c1ccc(F)cc12` (stereo not drawn) the Potency was inconclusive: 0.0073 µM [cytotoxic, full curve]. For `CN(C(=N)N)c1ccc(/C=C2\C=Cc3ccccc32)cc1`, the Potency was inconclusive: 18.4 µM [rising, partial curve]. In the case of `O=C(c1ccco1)N(Cc1ccco1)Cc1cc2ccccc2[nH]c1=O`, the Potency is reported as inconclusive: 29.1 µM [cytotoxic, single point]. With `COc1ccccc1CNS(=O)(=O)c1c(C)nc2sccn2c1=O` the Potency was “inactive”. In the case of `COc1ccc(CN(C)CC(=O)Nc2sc3c(c2C#N)CCC3)c(OC)c1`, the Potency is reported as inconclusive: 7.31 µM [cytotoxic, partial curve]. In the case of `CCOC(=O)C1=C(C)C2C3C(=O)N(c4cc(C)ccc4C)C(=O)C3C1(C)C1C(=O)N(c3cc(C)ccc3C)C(=O)C21` (stereo not drawn), the Potency is reported as inconclusive: 5.8 µM [cytotoxic, partial curve, poor fit]. With `COc1ccc2c(c1)CCc1c(C(=O)NCc3cccnc3)noc1-2` the Potency was active: 8.2 µM. With `COc1ccc(CCN=C(N)NS(=O)(=O)c2ccc(F)cc2)cc1` the Potency was inconclusive: 29.1 µM [cytotoxic, single point]. For `Cc1ccc(S(=O)(=O)c2cn(Cc3ccccc3)c3cc(N4CCCC4)c(F)cc3c2=O)cc1C`, the “activity change, negative = cytotoxicity” value was inactive: 0.964%. In the case of `CN(CCC#N)c1ccc(/C=C(\C#N)c2ccccn2)cc1`, the Potency is reported as active: 5.17 µM. In the case of `O=C(Nc1ccc(Cl)c(Cl)c1)Nc1ccc(Br)cc1F`, the Potency is reported as inconclusive: 18.4 µM [cytotoxic, single point]. In the case of `O=C(CSc1cccc[n+]1[O-])C12CC3CC(CC(C3)C1)C2`, the “activity change, negative = cytotoxicity” value is reported as inactive: -3.34%. For `COc1ccc(C(=O)NC(=S)NNC(=O)CNC(=O)C2CCCCC2)cc1`, the Potency was inconclusive: 16.4 µM [cytotoxic, partial curve]. For `COc1ccc(C(=O)Nc2cccc(C)n2)cc1S(=O)(=O)N1CCCc2ccccc21`, the Potency was inconclusive: 23.1 µM [cytotoxic, partial curve, poor fit]. For `CN(Cc1ccccc1F)C(=O)c1ccc(NC(=O)CC2SC(N3CCCCC3)=NC2=O)cc1` (stereo not drawn), the “activity change, negative = cytotoxicity” value was inactive: -23.2%. With `CCN(C[C@H]1N[C@@](CC)(C(=O)OC)[C@H]2C(=O)N(Cc3ccccc3)C(=O)[C@@H]12)C(=O)c1ccc(C)cc1` the Potency was inconclusive: 29.1 µM [cytotoxic, single point]. For `O=C(CSc1nc2ccccc2c(=O)n1CCC(=O)N1CCCCC1)NCc1ccccc1`, the Potency was active: 2.06 µM. With `c1ccc(Oc2cccc(Oc3ccccc3)n2)cc1` the Potency was inconclusive: 14.6 µM [rising, partial curve, poor fit]. With `CCOC(=O)c1ccccc1NS(=O)(=O)c1c(-c2ccc(C)cc2)csc1C(=O)OC` the “activity change, negative = cytotoxicity” value was inactive: -20.7%. In the case of `O=c1[nH]nc(Br)c(=O)n1C(c1ccccc1)c1ccccc1`, the Potency is reported as active: 23.1 µM. In the case of `Cc1ccc(NC(=O)CCl)cc1S(=O)(=O)N1CCCCCC1`, the Potency is reported as inconclusive: 29.1 µM [cytotoxic, single point]. With `CCC(C)Nc1c2c(nc3c(-c4ccccc4)c(C)nn13)CCC2` (stereo not drawn) the Potency was active: 9.2 µM. For `O=C(NC1(Cc2ccccc2)CCN(Cc2ccc(-c3ccccc3)cc2)C1=O)c1ccccc1` (stereo not drawn), the Potency was inconclusive: 29.1 µM [cytotoxic, partial curve, poor fit]. With `COCCSc1nnc(NC(=O)Cc2ccc(OC)c(OC)c2)s1` the Potency was inconclusive: 29.1 µM [cytotoxic, single point]. For `COc1ccc(-c2c([C@H]3[C@@H]4C=CCC[C@@]4(C)C(=O)N3Cc3ccccc3)ccc3ccccc23)cc1OC`, the Potency was inconclusive: 29.1 µM [cytotoxic, single point]. In the case of `Cc1c(Cl)cccc1NC(=O)CN1C(=O)COc2ccc(S(=O)(=O)Nc3ccccc3)cc21`, the “activity change, negative = cytotoxicity” value is reported as inactive: 0%. For `CN1CCCC(n2nc(Cc3ccc(Cl)cc3)c3ccccc3c2=O)CC1` (stereo not drawn), the Potency was inconclusive: 6.51 µM [cytotoxic, partial curve]. With `O=[n+]1c2c(n([O-])c3ccccc31)CCCC2` the Potency was inconclusive: 9.2 µM [rising, partial curve, poor fit]. With `CCOc1ccc(NC(=O)C2CC(=O)N=C(N)S2)cc1` (stereo not drawn) the Potency was inconclusive: 9.2 µM [rising, partial curve]. For `Cc1c(NS(=O)(=O)c2cccc(C(=O)Nc3ccc(SC(F)F)cc3)c2)c(=O)n(-c2ccccc2)n1C`, the Potency was active: 5.17 µM. For `Cc1cc(N2CCCC2=O)ccc1S(=O)(=O)Nc1c(C)nn(C)c1C`, the Potency was inconclusive: 11.6 µM [cytotoxic, partial curve]. With `COC(=O)c1ccc(C(=O)OC)c(NC(=S)N2CCN(c3cccc(Cl)c3)CC2)c1` the Potency was active: 16.4 µM. In the case of `Cc1ccc(S(=O)(=O)N2CCN(S(=O)(=O)N3CCCCCC3)CC2)cc1`, the Potency is reported as inconclusive: 29.1 µM [cytotoxic, single point]. With `Clc1nssc1=Nc1ccc(Br)cc1` the Potency was inconclusive: 10.3 µM [cytotoxic, partial curve]. With `COc1cccc(-n2c(SCC(=O)NC3CCCCC3)nc3n[nH]c(C)c3c2=N)c1` the Potency was inconclusive: 29.1 µM [cytotoxic, single point]. For `CCCCN1C(N)=NC[C@@H]1C(C)O` (stereo partly drawn), the Potency was inconclusive: 23.1 µM [rising, single point]. For `O=C(CSC1=NC2(CCCCCC2)N=C1c1ccccc1)Nc1ccc2c(c1)OCCO2`, the “activity change, negative = cytotoxicity” value was inactive: 9.5%. For `CC(C)CNC(=O)COC(=O)CCC(=O)c1cccs1`, the Potency was inconclusive: 1.16 µM [rising, full curve, poor fit]. For `C=CCn1c(SCC(=O)c2ccc(Cl)s2)nc2ccccc2c1=O`, the Potency was inconclusive: 2.31 µM [cytotoxic, partial curve, poor fit]. For `CCC/C(O)=C1\C(=O)CC(c2ccccc2)CC1=NCCc1c(C)[nH]c2ccccc12` (stereo not drawn), the “activity change, negative = cytotoxicity” value was inactive: -15.2%. In the case of `Cc1ccc(CN2CC[C@H]3C=CCc4cccc(c43)C2)cc1`, the “activity change, negative = cytotoxicity” value is reported as inactive: -5.43%. With `CN1CCC2(CC1)Nc1nc(SCc3ccc(Cl)cc3)nn1C1=C2CN(C)CC1` the “activity change, negative = cytotoxicity” value was inactive: -23.5%. For `O=C(N/N=C/c1cccc(C(F)(F)F)c1)C1CCN(c2ncc(C(F)(F)F)cc2Cl)CC1`, the Potency was inconclusive: 11.6 µM [cytotoxic, partial curve]. With `Cc1ccc(C2=NC(C)(C)NC2=O)cc1` the Potency was inconclusive: 16.4 µM [rising, partial curve, poor fit]. For `Cc1ccc(N2C(=O)C3ON(c4ccccc4)C(c4ccncc4)C3C2=O)cc1` (stereo not drawn), the Potency was inconclusive: 20.6 µM [cytotoxic, single point]. With `S=c1[nH]cnc2scc(-c3ccccc3)c12` the Potency was inconclusive: 20.6 µM [cytotoxic, single point]. In the case of `Cc1ccc(S(=O)(=O)N2CCCN(C(=O)CNC(=O)c3cccc(C)c3)CC2)cc1`, the “activity change, negative = cytotoxicity” value is reported as inactive: -7.56%. In the case of `Cc1ccc(CN2CCC(c3cc(-c4ccc(Cl)cc4)n[nH]3)CC2)cc1`, the Potency is reported as inconclusive: 29.1 µM [cytotoxic, single point]. In the case of `COc1ccc2cc(-c3csc(-c4cccnc4)n3)ccc2c1`, the “activity change, negative = cytotoxicity” value is reported as inactive: -17.9%. In the case of `COc1ccc2nc(SC(C)C(=O)NCC(=O)Nc3ccc(F)c(F)c3F)[nH]c2c1` (stereo not drawn), the “activity change, negative = cytotoxicity” value is reported as inactive: 9.41%. With `COc1ccc(Cl)cc1NC(=O)CCc1c(C)nc2c(c1C)c(=O)n(C)c(=O)n2C` the Potency was inconclusive: 5.17 µM [rising, partial curve, poor fit]. With `COc1ccc(N(CC(=O)N2CCN(Cc3ccccc3)CC2)S(=O)(=O)c2ccccc2)cc1` the Potency was inconclusive: 5.8 µM [cytotoxic, partial curve]. With `COc1ccc(C(=O)NNC(=S)NC(=O)c2ccc(Br)o2)cc1OC` the Potency was inconclusive: 7.31 µM [cytotoxic, partial curve]. For `N#CC(C#N)=C/C=C(\Nc1ccc(Cl)cc1)c1ccc(Cl)cc1`, the “activity change, negative = cytotoxicity” value was inactive: 9.02%. For `CC(C)[C@@H](COc1ccccc1)N1CCN(Cc2ccccc2)CCC1=O`, the Potency was inconclusive: 18.4 µM [cytotoxic, partial curve, poor fit]. With `CCc1nc2ccc(C(=O)NCc3ccc4c(c3)OCO4)cn2c1N(CCC(C)C)CCN(C)C` the Potency was inconclusive: 29.1 µM [cytotoxic, single point]. In the case of `O=C(CSc1nc(-c2ccccc2)no1)N1CCCCC1`, the “activity change, negative = cytotoxicity” value is reported as inactive: 9.58%. With `COc1ccc(C(=O)CN2C(=O)N(c3ccc(C(C)=O)cc3)S(=O)(=O)c3ccccc32)cc1` the Potency was inconclusive: 23.1 µM [rising, partial curve, poor fit]. In the case of `O=C(NCCCc1ccccc1)c1cc(COc2ccc(F)cc2Cl)on1`, the activity change, negative = cytotoxicity is reported as inconclusive: 3.47%. With `O=C1Cc2ccccc2Sc2c(OCCN3CCCCC3)cccc21` the Potency was inconclusive: 9.2 µM [cytotoxic, partial curve]. In the case of `CC1(C(=O)Nc2cccc(Oc3ccccc3)c2)CCN1Cc1cccc2c1OCO2` (stereo not drawn), the Potency is reported as inconclusive: 23.1 µM [cytotoxic, single point]. With `COc1ccc(S(=O)(=O)N2CCC(n3c(C(F)(F)F)nc4cccnc43)CC2)cc1OC` the Potency was inconclusive: 1.46 µM [cytotoxic, partial curve, poor fit]. In the case of `COc1ccc(OC)c(NC(=O)Cc2coc3ccc4ccccc4c23)c1`, the Potency is reported as inconclusive: 20 µM [cytotoxic, single point]. In the case of `O=C(COc1ccccc1O)NNc1ccccc1`, the Potency is reported as inconclusive: 23.1 µM [cytotoxic, single point].
